Test results reported in the supplement of paper PMC4604168 (melanoma cell lines).
The other results are listed elsewhere or left out. Many values rest on one well or one pass, so single values are uncertain.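 The apoptosis fraction was the count of cleaved-PARP antibody-stained nuclei relative to all DNA-stained nuclei, imaged in 1,536-well plates. Screening doses were set so most cells survived, and baseline and induced cleaved-PARP levels vary greatly across cell lines.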

How the values were obtained:
Assay in all cases: cleaved PARP positive nuclei fraction relative to DMSO control; melanoma cells; higher = more apoptosis
Conditions in all cases: library dose: low library concentration; 72 h
501Mel = system: 501Mel
A101D = system: A101D
A2058 = system: A2058
C32 = system: C32
CBRC008 = system: CBRC008 (line from a melanoma biopsy)
CBRC014 = system: CBRC014 (line from a melanoma biopsy)
CBRC016 = system: CBRC016 (line from a melanoma biopsy)
CBRC017 = system: CBRC017 (line from a melanoma biopsy)
COLO792 = system: COLO792
COLO800 = system: COLO800
COLO829 = system: COLO829
G361 = system: G361
IPC-298 = system: IPC-298
IST-MEL1 = system: IST-MEL1
LB2518-MEL = system: LB2518-MEL
LOXIMVI = system: LOXIMVI

Row | SMILES | cleaved PARP positive nuclei fraction (501Mel) [%] | cleaved PARP positive nuclei fraction (A101D) [%] | cleaved PARP positive nuclei fraction (A2058) [%] | cleaved PARP positive nuclei fraction (C32) [%] | cleaved PARP positive nuclei fraction (CBRC008) [%] | cleaved PARP positive nuclei fraction (CBRC014) [%] | cleaved PARP positive nuclei fraction (CBRC016) [%] | cleaved PARP positive nuclei fraction (CBRC017) [%] | cleaved PARP positive nuclei fraction (COLO792) [%] | cleaved PARP positive nuclei fraction (COLO800) [%] | cleaved PARP positive nuclei fraction (COLO829) [%] | cleaved PARP positive nuclei fraction (G361) [%] | cleaved PARP positive nuclei fraction (IPC-298) [%] | cleaved PARP positive nuclei fraction (IST-MEL1) [%] | cleaved PARP positive nuclei fraction (LB2518-MEL) [%] | cleaved PARP positive nuclei fraction (LOXIMVI) [%]
1 | O=C(O)[C@@H]1[O][Sb](=[O])([O][Sb]2(=[O])[O][C@H]([C@H](O)CO)[C@H](O)[C@H](C(=O)O)[O]2)[O][C@H]([C@H](O)CO)[C@@H]1O (some centres undefined) [stibogluconate] + Cc1cc([N+](=O)[O-])ccc1NS(=O)(=O)c1cc(Cl)ccc1Cl [FH535] (first compound 2 µM, partner dose 1 µM) | 65.7 | 48.6 | 174 | 35 | 766 | 178 | 996 | 301 | 50.7 | 45.8 | 93 | 66.5 | 53.5 | 78.6 | 153 | 111
2 | CC(C)C[C@H](NC(=O)[C@H](Cc1ccccc1)NC(=O)c1cnccn1)B(O)O [Bortezomib] + COc1ccc2c(c1)CCC1C2CCC2(C)C(NCCCCCCN3C(=O)C=CC3=O)CCC12 [U73122] (first compound 0.001 µM, partner dose 0.4 µM) | 203 | 155 | 184 | 90.2 | 863 | 306 | 511 | 806 | 117 | 65.5 | 122 | 1980 | 67.7 | 130 | 811 | 41.2
3 | O=C(O)[C@@H]1[O][Sb](=[O])([O][Sb]2(=[O])[O][C@H]([C@H](O)CO)[C@H](O)[C@H](C(=O)O)[O]2)[O][C@H]([C@H](O)CO)[C@@H]1O (some centres undefined) [stibogluconate] + COC(=O)c1sccc1S(=O)(=O)Nc1ccc(Nc2ccccc2)cc1OC [GSK0660] (first compound 2 µM, partner dose 1 µM) | 127 | 59.8 | 58.3 | 80.3 | 32.8 | 81.5 | 40.9 | 117 | 104 | 147 | 26.6 | 142 | 194 | 73.9 | 130 | 133
4 | O=C(O)c1ccc2c(c1)nc(Nc1cccc(Cl)c1)c1ccncc12 + COc1ccc2c(c1)CCC1C2CCC2(C)C(NCCCCCCN3C(=O)C=CC3=O)CCC12 [U73122] (first compound 0.4 µM, partner dose 0.4 µM) | 78.9 | 10.1 | 202 | 79.8 | 174 | 435 | 88.4 | 229 | 138 | 35.4 | 173 | 83.3 | 317 | 100 | 38.7 | 71.3
5 | C[C@@H](Oc1cc(-c2cnn(C3CCNCC3)c2)cnc1N)c1c(Cl)ccc(F)c1Cl [Crizotinib] + c1cc(-c2cnn3cc(-c4ccc(OCCN5CCCCC5)cc4)cnc23)ccn1 [Dorsomorphin] (first compound 0.2 µM, partner dose 0.4 µM) | 244 | 27.3 | 89.3 | 55.9 | 309 | 106 | 84.1 | 72.4 | 64.5 | 48.8 | 126 | 131 | 47.1 | 130 | 219 | 92.9
6 | C[C@@H](Oc1cc(-c2cnn(C3CCNCC3)c2)cnc1N)c1c(Cl)ccc(F)c1Cl [Crizotinib] + COc1cc2ncnc(Nc3ccc(Oc4ccccc4)cc3)c2cc1OC [SrcI1] (first compound 0.2 µM, partner dose 2 µM) | 57.3 | 28.8 | 128 | 124 | 34 | 87.8 | 48.1 | 63.7 | 101 | 104 | 99.5 | 99.5 | 53.1 | 179 | 57.8 | 69.2
7 | Nc1ncn([C@H]2C[C@H](O)[C@@H](CO)O2)c(=O)n1 [decitabine] + c1cc(-c2cnn3cc(-c4ccc(OCCN5CCCCC5)cc4)cnc23)ccn1 [Dorsomorphin] (first compound 0.1 µM, partner dose 0.4 µM) | 27.4 | 39 | 28.3 | 91.2 | 51.3 | 108 | 21.8 | 193 | 134 | 131 | 137 | 155 | 116 | 209 | 218 | 128
8 | O=C(O)c1ccc2c(c1)nc(Nc1cccc(Cl)c1)c1ccncc12 + CC(C)CCN1c2nc(Nc3cc(F)c(O)c(F)c3)ncc2N(C)C(=O)C1C [BID1870] (first compound 0.4 µM, partner dose 0.2 µM) | 75.5 | 12.2 | 44.6 | 240 | 244 | 184 | 294 | 219 | 18.1 | 48.1 | 165 | 80.9 | 128 | 92.4 | 35.1 | 84.5
9 | Nc1ncn([C@H]2C[C@H](O)[C@@H](CO)O2)c(=O)n1 [decitabine] + Cn1cc(/C=C2\C(=O)Nc3cccnc32)c2ccccc21 [GW441756] (first compound 0.1 µM, partner dose 0.4 µM) | 85.6 | 21.3 | 118 | 113 | 61.4 | 118 | 110 | 92.7 | 177 | 71.2 | 117 | 113 | 51.9 | 234 | 49.2 | 100
10 | Cc1cc(Nc2cc(N3CCN(C)CC3)nc(/C=C/c3ccccc3)n2)n[nH]1 + O=C1NC(=O)/C(=C/c2ccc(-c3ccc(F)cc3O)o2)S1 [AS252424] (first compound 0.04 µM, partner dose 1 µM) | 70.2 | 19.7 | 59.9 | 354 | 181 | 88.4 | 16.1 | 98 | 88 | 24 | 127 | 144 | 88.6 | 123 | 71.7 | 146
11 | C[C@@H](Oc1cc(-c2cnn(C3CCNCC3)c2)cnc1N)c1c(Cl)ccc(F)c1Cl [Crizotinib] + Oc1nc(-c2ccc(C(F)(F)F)cc2)nc2c1CSCC2 [XAV939] (first compound 0.2 µM, partner dose 2 µM) | 125 | 17.1 | 73.7 | 116 | 31.2 | 86.5 | 50.9 | 105 | 62.4 | 108 | 119 | 146 | 91.4 | 64.3 | 35.2 | 119
12 | Nc1ncn([C@H]2C[C@H](O)[C@@H](CO)O2)c(=O)n1 [decitabine] + CCCCCCCCCCCC1=C(O)C(=O)C=C(O)C1=O [Embelin] (first compound 0.1 µM, partner dose 1.2 µM) | 130 | 31 | 331 | 105 | 103 | 112 | 162 | 112 | 111 | 156 | 61.8 | 45.6 | 413 | 63.1 | 75.1 | 79.7
13 | O=C(O)c1ccc2c(c1)nc(Nc1cccc(Cl)c1)c1ccncc12 + O=S(=O)(c1ccccc1)N(CC(F)(F)F)c1ccc(C(O)(C(F)(F)F)C(F)(F)F)cc1 [T0901317] (first compound 0.4 µM, partner dose 1.4 µM) | 247 | 10.3 | 290 | 378 | 37.6 | 151 | 71.2 | 149 | 98.2 | 83.7 | 53.2 | 147 | 141 | 52.7 | 90 | 211
14 | CC(C)C[C@H](NC(=O)[C@H](Cc1ccccc1)NC(=O)c1cnccn1)B(O)O [Bortezomib] + CCCCCCCCCCCC1=C(O)C(=O)C=C(O)C1=O [Embelin] (first compound 0.001 µM, partner dose 1.2 µM) | 155 | 29.1 | 143 | 147 | 97.3 | 90.4 | 50 | 148 | 72.5 | 76.6 | 82.7 | 98.6 | 88.4 | 48.1 | 73.4 | 59.5
15 | Nc1ncn([C@H]2C[C@H](O)[C@@H](CO)O2)c(=O)n1 [decitabine] + O=C1NC(=O)/C(=C/c2ccc(-c3ccc(F)cc3O)o2)S1 [AS252424] (first compound 0.1 µM, partner dose 1 µM) | 94.7 | 8.95 | 53.7 | 79.8 | 56.4 | 86.4 | 31.6 | 144 | 98.4 | 52.2 | 93.5 | 102 | 70.8 | 164 | 79.1 | 66.5
16 | Nc1ncn([C@H]2C[C@H](O)[C@@H](CO)O2)c(=O)n1 [decitabine] + O=c1cc(-c2cccc3c2Sc2ccccc2S3)oc(N2CCOCC2)c1 [KU55933] (first compound 0.1 µM, partner dose 1 µM) | 140 | 36.4 | 88.5 | 88.3 | 93.4 | 98.5 | 37.1 | 76.7 | 159 | 55.2 | 75.7 | 78.9 | 265 | 636 | 83 | 206
17 | C[C@@H](Oc1cc(-c2cnn(C3CCNCC3)c2)cnc1N)c1c(Cl)ccc(F)c1Cl [Crizotinib] + COC(=O)c1sccc1S(=O)(=O)Nc1ccc(Nc2ccccc2)cc1OC [GSK0660] (first compound 0.2 µM, partner dose 1 µM) | 227 | 26.5 | 65.3 | 82 | 93.7 | 191 | 78.6 | 209 | 115 | 96.2 | 107 | 104 | 61.5 | 39.2 | 35.1 | 112
18 | O=C(O)c1ccc2c(c1)nc(Nc1cccc(Cl)c1)c1ccncc12 + COC(=O)c1sccc1S(=O)(=O)Nc1ccc(Nc2ccccc2)cc1OC [GSK0660] (first compound 0.4 µM, partner dose 1 µM) | 55 | 17.4 | 62.2 | 71.1 | 48.8 | 164 | 92.3 | 163 | 104 | 49.7 | 118 | 226 | 132 | 112 | 53.8 | 248
19 | CNC(=O)c1cc(Oc2ccc(NC(=O)Nc3ccc(Cl)c(C(F)(F)F)c3)cc2)ccn1 [sorafenib] + Cn1cc(/C=C2\C(=O)Nc3cccnc32)c2ccccc21 [GW441756] (first compound 0.4 µM, partner dose 0.4 µM) | 147 | 13.5 | 56.2 | 83.5 | 95.9 | 95 | 76.8 | 91.8 | 98.9 | 35.9 | 50.7 | 74.8 | 64.2 | 44.7 | 42.1 | 29.7

Full records as entered above. Values in the order: cleaved PARP positive nuclei fraction (501Mel) [%] | cleaved PARP positive nuclei fraction (A101D) [%] | cleaved PARP positive nuclei fraction (A2058) [%] | cleaved PARP positive nuclei fraction (C32) [%] | cleaved PARP positive nuclei fraction (CBRC008) [%] | cleaved PARP positive nuclei fraction (CBRC014) [%] | cleaved PARP positive nuclei fraction (CBRC016) [%] | cleaved PARP positive nuclei fraction (CBRC017) [%] | cleaved PARP positive nuclei fraction (COLO792) [%] | cleaved PARP positive nuclei fraction (COLO800) [%] | cleaved PARP positive nuclei fraction (COLO829) [%] | cleaved PARP positive nuclei fraction (G361) [%] | cleaved PARP positive nuclei fraction (IPC-298) [%] | cleaved PARP positive nuclei fraction (IST-MEL1) [%] | cleaved PARP positive nuclei fraction (LB2518-MEL) [%] | cleaved PARP positive nuclei fraction (LOXIMVI) [%]
C[C@@H](Oc1cc(-c2cnn(C3CCNCC3)c2)cnc1N)c1c(Cl)ccc(F)c1Cl [Crizotinib] + COc1cc2ncnc(Nc3ccc(Oc4ccccc4)cc3)c2cc1OC [SrcI1] (first compound 0.2 µM, partner dose 2 µM) in the list: 57.3 | 28.8 | 128 | 124 | 34 | 87.8 | 48.1 | 63.7 | 101 | 104 | 99.5 | 99.5 | 53.1 | 179 | 57.8 | 69.2
O=C(O)[C@@H]1[O][Sb](=[O])([O][Sb]2(=[O])[O][C@H]([C@H](O)CO)[C@H](O)[C@H](C(=O)O)[O]2)[O][C@H]([C@H](O)CO)[C@@H]1O (some centres undefined) [stibogluconate] + COC(=O)c1sccc1S(=O)(=O)Nc1ccc(Nc2ccccc2)cc1OC [GSK0660] (first compound 2 µM, partner dose 1 µM) in the list: 127 | 59.8 | 58.3 | 80.3 | 32.8 | 81.5 | 40.9 | 117 | 104 | 147 | 26.6 | 142 | 194 | 73.9 | 130 | 133
